# Data reported in US5554636A, “N-acylated 4-hydroxphenylamine derivatives with analgesic properties and pharmaceutical compositions containing them” (priority 1995, dated 1996).
# Tested on: writhes produced by intraperitoneal acetic acid in CD-1 mice
# Test: acetic acid writhing test
# Type: in vivo, CD-1 mice (Charles-River)
# Conditions: oral, 0.4% acetic acid i.p. 25 minutes later
# Description: Analgesic activity was measured in CD-1 mice (Charles-River) on the basis of the following three methods:
# The third method consists in measuring the number of writhes performed by a mouse as a manifestation of the pain produced by an intraperitoneal injection of 10 mL/kg of 0.4% acetic acid solution. […] Following oral administration of each compound, the mice (groups of 8 or more) received, 25 minutes later, an intraperitoneal injection of 10 mL/kg of 0.4% acetic acid. The number of writhes was counted 5-15 minutes after the injection of acetic acid.
structure (smiles),measurement,value
CN1CC[C@]23c4c5ccc(O)c4O[C@H]2[C@@H](O)C=C[C@H]3[C@H]1C5 [Morphine],"ED50, acetic acid test",8.2 mg/kg
